Laboratory results from patent publication US20210364494A1, “CELL-SUBSTRATE IMPEDANCE MONITORING OF CANCER CELLS OF DIFFERENT LINEAGE, ORIGIN, OR STAGE” (ACEA BIOSCIENCES, INC., priority 2017, published 2021).
Like-named read-outs stand apart in the source and are kept apart here.

Assays:
HepG2 [1] = experiment: cells; settings: Homo sapiens, HepG2, 48 h, read-out: IC-50, MTT Assay
HepG2 [2] = experiment: cells; settings: Homo sapiens, HepG2, 48 h, read-out: IC-50, RE-CES

CC/C(=C(\c1ccccc1)c1ccc(OCCN(C)C)cc1)c1ccccc1 [Tamoxifen]
IC50 (HepG2 [1]): 16.2 µM
IC50 (HepG2 [2]): 15.2 µM
